Experimental data: US20150344426A1, “COMPOUNDS AND THERAPEUTIC USES THEREOF” (ALZHEIMER'S INSTITUTE OF AMERICA, INC., priority 2012, published 2015)
Some of these results come from one statement about several compounds together.

Test system: HT1080 human fibrosarcoma cancer cells
Test: Anti-tumor activity in HT1080 human fibrosarcoma xenograft with twice daily dosing
Assay type: in vivo
Conditions: over the course of the study; all doses tested, orally twice daily
Method: One million HT1080 cells were implanted subcutaneously in the right flank of female nude mice (Crl:NU-Fox1^nu). When the median tumor volume (MTV) was approximately 209 mm^3, mice were randomized into four cohorts of ten animals. […] All cohorts were dosed twice daily for 7 days. The mice were observed daily for mortality and signs of toxicity. Tumor volumes and body weights were determined from Days 1 to 22. The results are depicted in FIG. 4.

Structure (SMILES)	maximal reduction in median body weight
CC(C)C(=O)OC[n+]1cccc(CNC(=O)Nc2ccc(OCCc3ccccc3-c3ccccc3)cc2)c1 [Example 44, 3-{[({4-[2-(Biphenyl-2-yl)ethoxy]phenyl}carbamoyl)amino]methyl}-1-{[(2-methylpropanoyl)oxy]methyl}pyridinium]	< 15 % of the initial weight
CC(=O)OC[C@@H]1CCCN1C(=O)OC[n+]1cccc(CNC(=O)Nc2ccc(OCCc3ccccc3-c3ccccc3)cc2)c1 [Example 45, 1-{[({(2S)-2-[(Acetyloxy)methyl]pyrrolidin-1-yl}carbonyl)oxy]methyl}-3-{[({4-[2-(biphenyl-2-yl)ethoxy]phenyl}carbamoyl)amino]methyl}pyridinium]	< 15 % of the initial weight
